Numbering of substitutions follows the chain as printed. No constants are given. Whether binding was seen depends on the method and setting. Some entries that bind do so weakly or less than the wild type.
What was measured:
[1] = molecular target: endogenous fibrils obtained from human tissue (human) (UniProt P05067); experiment: western immunoblot of endogenous human fibrils after SDS-PAGE (column DENATURED SPECIES …: Human Fibrils)
[2] = molecular target: Aβ-derived diffusible ligands (synthetic ADDLs), soluble oligomers of amyloid β1-42; experiment: immunoblot of ADDLs after native gel electrophoresis (column Identified Native ADDLs); immunofluorescence of ADDLs bound to cultured hippocampal cells (column Immunofluorescence)
[3] = molecular target: higher molecular weight oligomers of the ADDL preparation; experiment: western immunoblot of ADDLs after SDS-PAGE (column DENATURED SPECIES …: HMW ADDLs)
[4] = molecular target: Aβ-derived diffusible ligands (synthetic ADDLs), soluble oligomers of amyloid β1-42; experiment: immunocytochemistry of ADDLs bound to hippocampal cells
[5] = molecular target: tetramers of ADDLs (multi-dimensional conformation of soluble amyloid β1-42 oligomers, as defined by SDS-PAGE) (UniProt P05067); experiment: recognition of ADDL species defined by SDS-PAGE (see FIG. 3)
[6] = molecular target: biotinylated ADDLs (bADDLs), oligomers prepared from N-terminal biotinylated amyloid β1-42; experiment: titration ELISA on streptavidin-captured 10% biotinylated ADDL

By UniProt entry, the sequences of proteins in these tests, tags left out. Residues count along the entry.
UniProt P05067, residues 672-713: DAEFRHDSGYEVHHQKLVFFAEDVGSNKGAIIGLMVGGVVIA

B1: murine anti-ADDL monoclonal antibody 2D6 (antibody, mouse IgG1, V domains shown)
VH: QVTLKESGPGILKPSQTLSLTCSFSGFSLSTSGMGVGWIRQPSGKGLEWLAHIWWDDDKYYNPSLKSQLTISKDTSRNQVFLKITSVDTADTATYYCARRSISTVIPEDYFDYWGQGTILTVSS
VL: DVLMTQTPLSLTVSLGDQASISCRSSQSIVHSNGNTYLEWYLQKPGQSPKLLIYKVSNRFSGVPDRFSGSGSGTDFTLKISRVEAEDLGVYYCFQGSHVPLTFGAGTKLELK
Question: With B1 as the binder, how does the binding [1] read?
Answer: The binding was “binds”.

Question: And the binding [2]?
Answer: Its binding is “binds”.

Question: What about the binding [3] of the same binder?
Answer: The binding was “binds”.

Question: And the binding [4]?
Answer: The binding was “binds”.

Question: What about the binding [5] of the same binder?
Answer: The binding was “binds”.

B2: humanized 26D6, veneered, HCVR Ven1 IgG1 with LCVR Ven1 Kappa (antibody, V domains shown)
VH: QVTLKESGPGIVQPSQTLSLTCSFSGFSLSTSGMGVSWIRQPSGKGLEWLAHIYWDDDKQYNPSLKSRLTISKDTSKNQVFLTITSVDTVDTATYYCVRRASSSRYDDQFDYWGQGTPLTVSS
VL: DVVMTQTPLSLPVSLGDPASISCRASQSIVHSNGNTYLEWYLQKPGQSPKLLIYRVSNRFSGVPDRFSGSGSGTDFTLKISRVEAEDLGVYFCFQVTHVPLTFGAGTKLELKR
Question: Which binding [6] does the source give for B2 here?
Answer: The binding was “binds”.

B3: humanized 26D6, veneered, HCVR Ven1 IgG1 with LCVR Ven2 Kappa (antibody, V domains shown)
VH: B2 VH
VL: B2 VL with L88V, A105G
Question: B3 was tested. Which binding [6] did it give?
Answer: Its binding is “binds”.

B4: humanized 26D6, veneered, HCVR Ven2 IgG1 with LCVR Ven1 Kappa (antibody, V domains shown)
VH: B2 VH with I11L, Q13K, S15T, T89P
VL: B2 VL
Question: How did the binding [6] turn out when B4 was run?
Answer: The binding was “binds”.

B5: humanized 26D6, veneered, HCVR Ven2 IgG1 with LCVR Ven2 Kappa (antibody, V domains shown)
VH: B2 VH with I11L, Q13K, S15T, T89P
VL: B2 VL with L88V, A105G
Question: How did the binding [6] turn out when B5 was run?
Answer: Its binding is “binds”.

B6: humanized 26D6, veneered, HCVR Ven3 IgG1 with LCVR Ven1 Kappa (antibody, V domains shown)
VH: B2 VH with I11L, Q13K, S15T, F81V, T89P, P118L
VL: B2 VL
Question: B6 was tested. Which binding [6] did it give?
Answer: Its binding is “binds”.

B7: humanized 26D6, veneered, HCVR Ven3 IgG1 with LCVR Ven2 Kappa (antibody, V domains shown)
VH: B2 VH with I11L, Q13K, S15T, F81V, T89P, P118L
VL: B2 VL with L88V, A105G
Question: Which binding [6] does the source give for B7 here?
Answer: The binding was “binds”.

B8: humanized 20C2 version A, CDR grafted, IgG2m4/kappa (antibody)
heavy: QVTLKESGPALVKPTQTLTLTCTFSGFSLSTSGMGVGWIRQPPGKALEWLAHIWWDDDKSYNPSLKSRLTISKDTSKNQVVLTMTNMDPVDTATYYCARRQLGLRSIDAMDYWGQGTTVTVSSASTKGPSVFPLAPCSRSTSESTAALGCLVKDYFPEPVTVSWNSGALTSGVHTFPAVLQSSGLYSLSSVVTVTSSNFGTQTYTCNVDHKPSNTKVDKTVERKCCVECPPCPAPPVAGPSVFLFPPKPKDTLMISRTPEVTCVVVDVSQEDPEVQFNWYVDGVEVHNAKTKPREEQFNSTFRVVSVLTVLHQDWLNGKEYKCKVSNKGLPSSIEKTISKTKGQPREPQVYTLPPSREEMTKNQVSLTCLVKGFYPSDIAVEWESNGQPENNYKTTPPMLDSDGSFFLYSKLTVDKSRWQQGNVFSCSVMHEALHNHYTQKSLSLSPGK
light: DVVMTQSPLSLPVTPGEPASISCRSSQSILHSNGNTYLEWYLQKPGQSPQLLIYKVSNRFSGVPDRFSGSGSGTDFTLKISRVEAEDVGVYYCFQGSLVPLTFGQGTKLEIKRTVAAPSVFIFPPSDEQLKSGTASVVCLLNNFYPREAKVQWKVDNALQSGNSQESVTEQDSKDSTYSLSSTLTLSKADYEKHKVYACEVTHQGLSSPVTKSFNRGEC
Question: With B8 as the binder, how does the binding [6] read?
Answer: Its binding is “binds”.

B9: humanized 20C2 version B, CDR grafted, IgG2m4/kappa (antibody)
heavy: B8 heavy with F24L
light: B8 light
Question: How did the binding [6] turn out when B9 was run?
Answer: The binding was “binds”.

From patent US20110159013A1
